PMC9544338
Results are given in words; binding and its absence hold for the method and conditions named. In cells and extracts the contact can be indirect. Some results given as binding are weak or reduced against the parent protein; the word gives no strength.

Protein sequences, listed by entry. Tags and fused reporters are not part of them. Lines headed by an entry give the natural chain unless they say otherwise; changes in a name come on top.
UniProt P09471: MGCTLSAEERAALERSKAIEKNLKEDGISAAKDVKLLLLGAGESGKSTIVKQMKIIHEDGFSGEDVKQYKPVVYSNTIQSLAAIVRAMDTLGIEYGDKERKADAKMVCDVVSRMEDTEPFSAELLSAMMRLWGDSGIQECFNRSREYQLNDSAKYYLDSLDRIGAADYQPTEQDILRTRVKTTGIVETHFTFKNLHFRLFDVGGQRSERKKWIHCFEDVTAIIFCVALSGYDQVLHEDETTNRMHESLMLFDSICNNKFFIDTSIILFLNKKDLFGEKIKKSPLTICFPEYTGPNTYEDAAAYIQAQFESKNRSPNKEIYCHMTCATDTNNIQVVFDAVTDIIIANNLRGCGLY
UniProt P84077: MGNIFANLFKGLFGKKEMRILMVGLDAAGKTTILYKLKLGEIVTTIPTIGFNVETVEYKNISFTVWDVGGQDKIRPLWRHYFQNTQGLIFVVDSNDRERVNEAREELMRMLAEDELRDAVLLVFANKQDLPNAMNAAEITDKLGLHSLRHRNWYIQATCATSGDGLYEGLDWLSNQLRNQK
UniProt P16520: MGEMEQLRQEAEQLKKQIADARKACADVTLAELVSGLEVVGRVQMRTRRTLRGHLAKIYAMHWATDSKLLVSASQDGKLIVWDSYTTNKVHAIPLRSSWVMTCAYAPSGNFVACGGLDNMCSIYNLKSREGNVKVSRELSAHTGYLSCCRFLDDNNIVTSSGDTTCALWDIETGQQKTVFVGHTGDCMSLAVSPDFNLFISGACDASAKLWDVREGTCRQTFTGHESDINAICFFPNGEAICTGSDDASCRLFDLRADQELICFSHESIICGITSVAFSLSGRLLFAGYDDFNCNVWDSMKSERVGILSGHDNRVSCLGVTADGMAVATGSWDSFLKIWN

Tests used:
[1] = biological target: Gαo wild type (construct of fig. S2, tag not shown) (human) (UniProt P09471); test: co-IP + pull-down; N2a cells cotransfected with Gαo variants and the Golgi partners (fig. S2, B to G); immunoprecipitation with anti-GFP nanobody or glutathione pull-down, which one for which partner was not shown
[2] = biological target: Gαo[E246K] (construct of fig. S2, tag not shown) (human) (UniProt P09471); test: as above
[3] = biological target: Gαo[G203R] (construct of fig. S2, tag not shown) (human) (UniProt P09471); test: as above
[4] = biological target: Gαo[R209C] (construct of fig. S2, tag not shown) (human) (UniProt P09471); test: as above
[5] = biological target: nanoluciferase-tagged Gαo wild type (plasmid Go1-CASE) (human) (UniProt P09471); test: FRET or BRET; HEK293T cells transfected with Go1-CASE (NanoLuc-tagged Gαo, Gβ3, Venus-tagged Gγ9), with or without a GPCR; basal BRET ratio in PBS with 10 μM furimazine; GPCR agonists decreased the BRET
[6] = biological target: nanoluciferase-tagged Gαo[E246K] (plasmid Go1-CASE) (human) (UniProt P09471); test: as above
[7] = biological target: nanoluciferase-tagged Gαo[G203R] (plasmid Go1-CASE) (human) (UniProt P09471); test: as above
[8] = biological target: nanoluciferase-tagged Gαo[R209C] (plasmid Go1-CASE) (human) (UniProt P09471); test: as above

Measured: binding

Arf1-mRFP (from UniProt P84077 1-181)
binds: [1] | [2] | [3] | [4]

Gβγ of the plasmid Go1-CASE (Gβ3 and Gγ9 with the Venus tag) (from UniProt P16520 1-340; O14610 1-69) (complex)
binds: [5] | [6] | [7] | [8]
